Data from paper PMC3556083.
These are yes or no findings as the source states them, for the method shown. In cells and extracts the contact can be indirect. Here binding means that the protein was enriched with, or labelled near, the bait; the list need not be complete.

Molecular target: β2-adrenergic receptor (UniProt P07550)
Assay: affinity purification with mass spectrometry; purified Flag-β2AR in rHDL immobilised on M1 anti-Flag resin, occupied by 50 µM BI-167107 (full agonist) or 50 µM carazolol (inverse agonist); adult rat heart cytosol (10 mg/ml, 4 mM CaCl2) overnight at 4°C; eluted with FLAG peptide and EDTA; gel slices, LC-MS; proteins of the M1 resin, empty rHDL and Ni-NTA controls subtracted; hits of either or both samples; only the target purified

B1: SELENBP1 (protein, UniProt Q8VIF7 1-472)
chain: MATKCTKCGPGYATPLEAMKGPREEIVYLPCIYRNTGIEAPDYLATVDVDPKSPHYSQVIHRLPMPHLKDELHHSGWNTCSSCFGDSTKSRDKLILPSIISSRIYVVDVGSEPRAPKLHKVIEPNEIHAKCNLGNLHTSHCLASGEVMISSLGDPQGNGKGGFVLLDGETFEVKGTWEKPGGEAPMGYDFWYQPRHNIMVSTEWAAPNVFKDGFNPAHVEAGLYGSHIHVWDWQRHEIIQTLQMKDGLIPLEIRFLHDPDATQGFVGCALSSNIQRFYKNEGGTWSVEKVIQVPSKKVKGWMLPEMPGLITDILLSLDDRFLYFSNWLHGDIRQYDISNPKKPRLTGQIFLGGSIVKGGSVQVLEDQELTCQPEPLVVKGKRVPGGPQMIQLSLDGKRLYVTTSLYSAWDKQFYPNLIREGSVMLQIDVDTANGGLKLNPNFLVDFGKEPLGPALAHELRYPGGDCSSDIWI
**Q.** B1 was tested. Which binding did it give?
**A.** Its binding is “binds”.

B2: EHD4 (protein, UniProt Q8R3Z7 1-549)
chain: MRKDLRSLLNNERAPVTQRLMIGRCGRGRARERAVARASPAPRVLPLEEAYRFHEFHSPALEDADFENKPMILLVGQYSTGKTTFIRYLLEQDFPGMRIGPEPTTDSFIAVMYGETEGSTPGNALVVDPKKPFRKLSRFGNAFLNRFMCSQLPNQVLKSISIIDSPGILSGEKQRISRGYDFCQVLQWFAERVDRIILLFDAHKLDISDEFSEAIKAFRGQDDKIRVVLNKADQVDTQQLMRVYGALMWSLGKVINTPEVLRVYIGSFWAQPLQNTDNRRLFEAEAQDLFRDIQSLPQKAAVRKLNDLIKRARLAKVHAYIISYLKKEMPSMFGKENKKRELIFRLPEIYVQLQREYQISAGDFPEVKAMQEQLENYDFTKFHSLKPKLIEAVDNMLTNKISSLMSLISQEEMNMPTQMVQGGAFDGTTEGPFNQGYGEGAKEGADEEEWVVAKDKPVYDELFYTLSPINGKISGVNAKKEMVTSKLPNSVLGKIWKLADCDCDGMLDEEEFALAKHLIKIKLDGYELPNSLPPHLVPPSHRKSLPKAD
**Q.** B2 was tested. Which binding did it give?
**A.** The binding was “binds”.

B3: EHD2 (protein, UniProt Q4V8H8 1-543)
chain: MFSWLKKGGARGQRSEAIRTVTSSLKELYRTKLLPLEEHYRFGSFHSPALEDADFDGKPMVLVAGQYSTGKTSFIQYLLEQEVPGSRVGPEPTTDCFVAVMHGETEGTVPGNALVVDPEKPFRKLNPFGNTFLNRFMCAQLPNQVLESISIIDTPGILSGAKQRVSRGYDFPAVLRWFAERVDLIILLFDAHKLEISDEFSEAIGALRGHEDKIRVVLNKADMVETQQLMRVYGALMWALGKVVGTPEVLRVYIGSFWSQPLLVPDNRRLFELEEQDLFRDIQGLPRHAALRKLNDLVKRARLVRVHAYIISYLKKEMPSVFGKENKKKQLIFKLPVIFAKIQLEHHISPGDFPDCQKMQELLMAHDFTKFHSLKPKLLEALDEMLTHDIAKLMPLLRQEELESVEAGVQGGAFEGTRMGPFVERGPDEAIEDGEEGSEDDAEWVVTKDKSKYDEIFYNLAPADGKLSGSKAKTWMVGTKLPNSVLGRIWKLSDVDRDGMLDDEEFALASHLIEAKLEGHGLPTNLPRRLVPPSKRRQKGSAE
**Q.** How did the binding turn out when B3 was run?
**A.** Its binding is “binds”.

B4: DSTN (protein, UniProt Q7M0E3 1-165)
chain: MASGVQVADEVCRIFYDMKVRKCSTPEEIKKRKKAVIFCLSADKKCIVVEEGKEILVGDVGVTITDPFKHFVGMLPEKDCRYALYDASFETKESRKEELMFFLWAPEQAPLKSKMIYASSKDAIKKKFPGIKHEYQANGPEDLNRTSIAEKLGGSLIVAFEGSPV
**Q.** How did the binding turn out when B4 was run?
**A.** Its binding is “binds”.

B5: SORBS2 (protein, UniProt O35413 1-1196)
chain: MNTDSGGCARKRAAMSVTLTSVKRVQSSPNLLAAGRESHSPDSAWRSYNGRNPETLNGDATYSSLAAKGFRSVRPNLQDKKSPTQSHITINGNSGGAVSPVSYYQRPFSPSAYSLPASLNSSIIMPHGRSLDSAETYSQHAQSLDGTMGSSIPLYRSSEEEKRVTVIKAPHYPGIGPVDESGIPTAIRTTVDRPKDWYKTMFKQIHMVHKPDEDTDMYNTPYTYNAGLYNSPYSAQSHPAAKTQTYRPLSKSHSDNGTDAFKEATSPVPPPHVPPRPRDQSSTEKHDWDPPDRKVDTRKFRSEPRSIFEYEPGKSSILQHERPVSVYQSSIDRSLERPSSSASMAGDFRKRRKSEPAVGPPRGLGDHSSSRTSPGRADLPGSSSTFTTSFISSSPSSPSRAQGGDDSKMCPPLCSYSGLNGSPSSELECCGAYRRHLDVPQDSQRAITFKNGWQMARQNAEIWSSTEEAVSPKIKSRSCDDLLNDDCGSFPDPKTKSESMGSLLCDEGSKESDPMTWTSPYIPEVCGNSRSRLKHRSAHNAPGFLKMYKKMHRINRKDLMNSEVICSVKSRILQYEKEQQHRGLLHGWSQSSTEEVPRDVVPTRISEFEKLIQKSKSMPNLGDEMLSPVTLEPPQNGLCPKRRFSIESLLEEETQVRHPSQGQRSCKSNTLVPIHIEVTSDEQPRTHMEFSDSDQDGVVSDHSDNVHVERSSFCSESDFDHFSFTSSESFYGSSHHHHHHHHHHGHFISSCKGRCPASYTRFTTMLKHERAKHENIDRPRRQDMDPGLSKLAFLVSPVPFRRKKVLTPQKQTEQAKCKASVVEALDSALKDICDQIKAEKRRGSLPDNSILHRLISELLPQIPKRNSSLNALKRSPMHQPFHPLPQDGAIHCPLYQNDCGRMPHSASFPDVDTTSSYHAQDYGSVLSLQDHESPRSYSSTLTDLGRSVSRERRGTPEKEVKLPAKAVYDFKAQTSKELSFKKGDTVYILRKIDQNWYEGEHHGRVGIFPISYVEKLTPPEKAQPARPPPPVQPGEIGEAIAKYNFNADTNVELSLRKGDRIILLKRVDQNWYEGKIPGTNRQGIFPVSYVEVVKRNTKGSEDYPDPPLPHSYSSDRIYSLSSNKPQRPVFSHENIQGGGEPFQALYNYTPRNEDELELRESDVVDVMEKCDDGWFVGTSRRTKFFGTFPGNYVKRL
**Q.** How did the binding turn out when B5 was run?
**A.** Its binding is “binds”.

B6: ARL8B (protein, UniProt Q66HA6 1-186)
chain: MLALISRLLDWFRSLFWKEEMELTLVGLQYSGKTTFVNVIASGQFSEDMIPTVGFNMRKVTKGNVTIKIWDIGGQPRFRSMWERYCRGVNAIVYMIDAADREKIEASRNELHNLLDKPQLQGIPVLVLGNKRDLPNALDEKQLIEKMNLSAIQDREICCYSISCKEKDNIDITLQWLIQHSKSRRS
**Q.** With B6 as the binder, how does the binding read?
**A.** Its binding is “binds”.

B7: ALOX15 (protein, UniProt Q02759 1-663)
chain: MGVYRIRVSTGDSKYAGSNNEVYLWLVGQHGEASLGKLLRPCRDSEAEFKVDVSEYLGPLLFVRVQKWHYLTDDAWFCNWISVKGPGDQGSEYMFPCYRWVQGRSILSLPEGTGCTVVEDSQGLFRKHREEELEERRSLYRWGNWKDGSILNVAAASISDLPVDQRFREDKRIEFEASQVIGVMDTVVNFPINTVTCWKSLDDFNCVFKSGHTKMAERVRNSWKEDAFFGYQFLNGANPMVLKRSTCLPARLVFPPGMEKLQAQLNKELQKGTLFEADFFLLDGIKANVILCSQQYLAAPLVMLKLMPDGQLLPIAIQLELPKTGSTPPPIFTPSDPPMDWLLAKCWVRSSDLQLHELQAHLLRGHLMAEVFAVATMRCLPSVHPVFKLLVPHLLYTMEINVRARSDLISERGFFDKAMSTGGGGHLDLLKQAGAFLTYCSLCPPDDLAERGLLDIETCFYAKDALRLWQIMNRYVVGMFNLHYKTDKAVQDDYELQSWCREITDIGLQGAQDRGFPTSLQSRAQACYFITMCIFTCTAQHSSVHLGQLDWFYWVPNAPCTMRLPPPTTKEATMEKLMATLPNPNQSTLQINVVWLLGRRQAVMVPLGQHSEEHFPNPEAKAVLKKFREELAALDKEIEIRNKSLDIPYEYLRPSMVENSVAI
**Q.** For B7, which binding is on record?
**A.** The binding was “binds”.

B8: SIRT2 (protein, UniProt Q5RJQ4 1-350)
chain: MDFLRNLFTQTLGLGSQKERLLDELTLEGVTRYMQSERCRRVICLVGAGISTSAGIPDFRSPSTGLYANLEKYHLPYPEAIFEISYFKKHPEPFFALAKELYPGQFKPTICHYFIRLLKEKGLLLRCYTQNIDTLERVAGLEPQDLVEAHGTFYTSHCVNTSCGKEYTMSWMKEKIFSEATPKCEKCQNVVKPDIVFFGENLPPRFFSCMQSDFSKVDLLIIMGTSLQVQPFASLISKAPLATPRLLINKEKTGQTDPFLGMMMGLGGGMDFDSKKAYRDVAWLGDCDQGCLALADLLGWKELEDLVRREHANIDAQSGSQASNPSATVSPRKSPPPAKEAARTKEKEEH
**Q.** How did the binding turn out when B8 was run?
**A.** Its binding is “binds”.

B9: RAB12 (protein, UniProt P35284 1-291)
chain: MLLPLLRRSCFPSSTPGGGGSGGGAERVEGARGPGARGRRPEREPYACMDPSAALHRRPAGGGLGAVSPALSGGQARRRKQPPRPADFKLQVIIIGSRGVGKTSLMERFTDDTFCEACKSTVGVDFKIKTVELRGKKIRLQIWDTAGQERFNSITSAYYRSAKGIILVYDITKKETFDDLPKWMKMIDKYASEDAELLLVGNKLDCETDREISRQQGEKFAQQITGMRFCEASAKDNFNVDEIFLKLVDDILKKMPLDVLRSELSNSILSLQPEPEIPPELPPPRPHVRCC
**Q.** With B9 as the binder, how does the binding read?
**A.** Its binding is “binds”.

B10: ARL1 (protein, UniProt P61212 1-181)
chain: MGGFFSSIFSSLFGTREMRILILGLDGAGKTTILYRLQVGEVVTTIPTIGFNVETVTYKNLKFQVWDLGGQTSIRPYWRCYYSNTDAVIYVVDSCDRDRIGISKSELVAMLEEEELRKAILVVFANKQDMEQAMTPSEMANALGLPALKDRKWQIFKTSATKGTGLDEAMEWLVETLKSRQ
**Q.** With B10 as the binder, how does the binding read?
**A.** The binding was “binds”.

B11: CAPNS1 (protein, UniProt Q64537 1-270)
chain: MFLVNSFLKGGGGGGGGGGLGGGLGNVLGGLISGAAGGGGGGGGGGGMGLGGGGGGGGTAMRILGGVISAISEAAAQYNPEPPPPRSHYSNIEANESEEERQFRKLFVQLAGDDMEVSATELMNILNKVVTRHPDLKTDGFGIDTCRSMVAVMDSDTTGKLGFEEFKYLWNNIKKWQGIYKRFDTDRSGTIGSNELPGAFEAAGFHLNQHIYSMIIRRYSDETGNMDFDNFISCLVRLDAMFRAFRSLDKNGTGQIQVNIQEWLQLTMYS
**Q.** Which binding does the source give for B11 here?
**A.** The binding was “binds”.

B12: BASP1 (protein, UniProt Q05175 1-220)
chain: MGSKLSKKKKGYNVNDEKAKDKDKKAEGAGTEEEGTQKESEPQAAADATEVKESAEEKPKDAADGEAKAEEKEADKAAAKEEAPKAEPEKSEGAAEEQPEPAPAPEQEAAAPGPAAGGEAPKAGEASAESTGAADGAPQEEGEAKKTEAPAAGPEAKSDAAPAASDSKPSTEPAPSSKETPAASEAPSSAAKAPAPAAPAAEPQAEAPVASSEQSVAVKE
**Q.** For B12, which binding is on record?
**A.** The binding was “binds”.

B13: CRIP2 (protein, UniProt P36201 1-208)
chain: MASKCPKCDKTVYFAEKVSSLGKDWHKFCLKCERCNKTLTPGGHAEHDGKPFCHKPCYATLFGPKGVNIGGAGSYIYEKPPTEAPQVTGPIEVPVVRTEERKTSGPPKGPSKASSVTTFTGEPNMCPRCNKRVYFAEKVTSLGKDWHRPCLRCERCSKTLTPGGHAEHDGQPYCHKPCYGILFGPKGVNTGAVGSYIYDKDPEGTVQP
**Q.** Which binding does the source give for B13 here?
**A.** The binding was “binds”.
